Here are results for 39 targets from the supplement of paper PMC10849652.

By UniProt entry, the sequences of proteins in these tests, tags left out. Where a name states a change or a piece, a line headed by the entry shows the natural chain unless it says otherwise.
UniProt Q9NPL8: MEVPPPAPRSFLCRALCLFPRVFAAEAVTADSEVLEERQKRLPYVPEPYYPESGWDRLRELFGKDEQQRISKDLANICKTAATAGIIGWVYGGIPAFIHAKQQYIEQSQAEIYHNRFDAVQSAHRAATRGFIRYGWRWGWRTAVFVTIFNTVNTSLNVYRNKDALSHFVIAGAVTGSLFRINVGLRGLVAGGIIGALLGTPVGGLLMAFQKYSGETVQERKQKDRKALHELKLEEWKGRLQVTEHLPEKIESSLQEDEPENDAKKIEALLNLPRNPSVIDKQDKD
UniProt O00142: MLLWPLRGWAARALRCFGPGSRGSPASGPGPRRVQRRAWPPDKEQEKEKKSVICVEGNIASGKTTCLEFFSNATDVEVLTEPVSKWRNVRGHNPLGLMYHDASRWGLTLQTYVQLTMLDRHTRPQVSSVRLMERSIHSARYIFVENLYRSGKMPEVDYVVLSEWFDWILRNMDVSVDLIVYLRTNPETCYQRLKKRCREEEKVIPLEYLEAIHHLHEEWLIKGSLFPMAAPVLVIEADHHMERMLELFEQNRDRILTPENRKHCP
UniProt O14925: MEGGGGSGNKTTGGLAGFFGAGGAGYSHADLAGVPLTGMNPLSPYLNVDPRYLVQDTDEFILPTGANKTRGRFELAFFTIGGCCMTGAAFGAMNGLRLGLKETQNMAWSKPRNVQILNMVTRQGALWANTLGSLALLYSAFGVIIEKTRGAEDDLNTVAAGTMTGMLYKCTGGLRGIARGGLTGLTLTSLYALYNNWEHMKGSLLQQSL
UniProt Q8NFU7: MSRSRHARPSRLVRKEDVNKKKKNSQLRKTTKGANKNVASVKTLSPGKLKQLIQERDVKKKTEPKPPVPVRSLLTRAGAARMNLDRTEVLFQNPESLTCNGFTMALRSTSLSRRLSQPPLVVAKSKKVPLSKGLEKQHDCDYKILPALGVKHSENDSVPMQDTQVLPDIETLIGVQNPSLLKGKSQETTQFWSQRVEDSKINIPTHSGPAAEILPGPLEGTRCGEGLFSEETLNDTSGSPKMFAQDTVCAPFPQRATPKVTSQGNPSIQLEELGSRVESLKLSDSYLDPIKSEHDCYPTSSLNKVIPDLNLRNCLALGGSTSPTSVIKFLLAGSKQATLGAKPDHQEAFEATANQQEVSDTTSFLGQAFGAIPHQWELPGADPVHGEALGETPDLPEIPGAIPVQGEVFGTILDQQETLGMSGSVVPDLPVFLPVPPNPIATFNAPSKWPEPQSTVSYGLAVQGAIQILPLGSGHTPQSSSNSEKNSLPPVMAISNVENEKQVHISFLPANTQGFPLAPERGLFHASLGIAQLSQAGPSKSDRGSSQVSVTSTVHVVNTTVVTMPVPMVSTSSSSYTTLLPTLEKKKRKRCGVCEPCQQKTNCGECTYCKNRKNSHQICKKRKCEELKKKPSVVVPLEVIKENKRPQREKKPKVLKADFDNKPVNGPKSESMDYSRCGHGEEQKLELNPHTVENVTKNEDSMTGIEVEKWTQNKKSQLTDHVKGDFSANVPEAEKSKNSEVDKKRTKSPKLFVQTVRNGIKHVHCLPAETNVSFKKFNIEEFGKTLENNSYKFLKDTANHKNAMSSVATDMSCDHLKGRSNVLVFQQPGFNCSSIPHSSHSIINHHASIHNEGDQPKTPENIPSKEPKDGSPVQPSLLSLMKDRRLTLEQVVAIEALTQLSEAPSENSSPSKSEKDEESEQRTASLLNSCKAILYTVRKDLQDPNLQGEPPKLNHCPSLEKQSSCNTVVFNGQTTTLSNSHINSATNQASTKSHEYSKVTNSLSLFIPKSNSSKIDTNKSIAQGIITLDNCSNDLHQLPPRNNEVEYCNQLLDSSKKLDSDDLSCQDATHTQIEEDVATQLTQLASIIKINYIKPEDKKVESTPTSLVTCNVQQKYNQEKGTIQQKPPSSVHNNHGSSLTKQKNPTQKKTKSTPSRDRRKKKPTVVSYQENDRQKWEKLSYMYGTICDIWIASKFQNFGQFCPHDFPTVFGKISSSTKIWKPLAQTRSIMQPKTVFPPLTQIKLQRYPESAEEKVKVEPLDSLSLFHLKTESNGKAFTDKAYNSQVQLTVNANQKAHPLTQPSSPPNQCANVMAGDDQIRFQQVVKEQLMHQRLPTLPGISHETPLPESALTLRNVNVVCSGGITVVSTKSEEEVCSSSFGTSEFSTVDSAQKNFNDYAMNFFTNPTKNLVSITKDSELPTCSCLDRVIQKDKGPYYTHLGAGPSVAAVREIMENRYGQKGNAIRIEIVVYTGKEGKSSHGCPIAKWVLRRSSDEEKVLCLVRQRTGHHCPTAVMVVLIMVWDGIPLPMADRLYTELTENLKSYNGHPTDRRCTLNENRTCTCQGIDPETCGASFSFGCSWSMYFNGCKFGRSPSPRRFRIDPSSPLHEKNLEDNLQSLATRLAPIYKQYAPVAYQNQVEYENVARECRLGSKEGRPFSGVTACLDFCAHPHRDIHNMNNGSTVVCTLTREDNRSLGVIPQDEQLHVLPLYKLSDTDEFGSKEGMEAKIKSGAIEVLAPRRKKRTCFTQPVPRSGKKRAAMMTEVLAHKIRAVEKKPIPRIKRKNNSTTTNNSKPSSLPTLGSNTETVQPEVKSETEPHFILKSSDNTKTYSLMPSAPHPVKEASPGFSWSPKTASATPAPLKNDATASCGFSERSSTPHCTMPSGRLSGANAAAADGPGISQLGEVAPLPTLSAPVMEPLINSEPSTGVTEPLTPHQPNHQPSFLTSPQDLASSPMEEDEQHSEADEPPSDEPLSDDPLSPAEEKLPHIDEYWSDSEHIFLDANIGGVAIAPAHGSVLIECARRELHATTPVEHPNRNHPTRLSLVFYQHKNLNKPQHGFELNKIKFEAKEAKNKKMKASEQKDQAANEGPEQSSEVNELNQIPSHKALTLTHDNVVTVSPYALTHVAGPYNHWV
UniProt P17987, whole entry, looked up: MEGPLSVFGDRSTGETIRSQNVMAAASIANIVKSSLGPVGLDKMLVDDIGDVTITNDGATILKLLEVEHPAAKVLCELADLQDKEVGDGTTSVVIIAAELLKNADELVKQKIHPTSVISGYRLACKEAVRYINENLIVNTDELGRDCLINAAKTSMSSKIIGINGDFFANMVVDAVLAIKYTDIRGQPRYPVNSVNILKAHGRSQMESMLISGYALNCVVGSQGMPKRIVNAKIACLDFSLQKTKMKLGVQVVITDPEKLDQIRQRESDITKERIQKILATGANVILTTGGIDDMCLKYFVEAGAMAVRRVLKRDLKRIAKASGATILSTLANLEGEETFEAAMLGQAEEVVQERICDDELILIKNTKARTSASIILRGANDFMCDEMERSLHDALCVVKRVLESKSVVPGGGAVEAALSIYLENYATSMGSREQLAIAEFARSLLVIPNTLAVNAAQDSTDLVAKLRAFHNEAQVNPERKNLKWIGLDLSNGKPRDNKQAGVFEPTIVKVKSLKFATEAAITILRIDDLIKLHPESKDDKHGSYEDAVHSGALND
UniProt Q8WVM0: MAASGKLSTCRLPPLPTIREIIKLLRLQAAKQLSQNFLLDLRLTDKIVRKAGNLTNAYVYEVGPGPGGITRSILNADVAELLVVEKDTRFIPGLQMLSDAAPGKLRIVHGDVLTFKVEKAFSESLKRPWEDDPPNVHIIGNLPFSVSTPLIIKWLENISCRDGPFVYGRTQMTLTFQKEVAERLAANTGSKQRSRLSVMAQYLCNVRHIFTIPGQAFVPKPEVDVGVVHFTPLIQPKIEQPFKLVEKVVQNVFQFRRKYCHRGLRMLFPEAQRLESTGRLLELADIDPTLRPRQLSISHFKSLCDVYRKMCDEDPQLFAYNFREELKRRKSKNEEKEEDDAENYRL
UniProt Q9Y5J9: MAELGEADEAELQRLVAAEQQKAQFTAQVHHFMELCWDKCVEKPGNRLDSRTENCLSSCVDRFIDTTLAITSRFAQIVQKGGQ
UniProt O60343: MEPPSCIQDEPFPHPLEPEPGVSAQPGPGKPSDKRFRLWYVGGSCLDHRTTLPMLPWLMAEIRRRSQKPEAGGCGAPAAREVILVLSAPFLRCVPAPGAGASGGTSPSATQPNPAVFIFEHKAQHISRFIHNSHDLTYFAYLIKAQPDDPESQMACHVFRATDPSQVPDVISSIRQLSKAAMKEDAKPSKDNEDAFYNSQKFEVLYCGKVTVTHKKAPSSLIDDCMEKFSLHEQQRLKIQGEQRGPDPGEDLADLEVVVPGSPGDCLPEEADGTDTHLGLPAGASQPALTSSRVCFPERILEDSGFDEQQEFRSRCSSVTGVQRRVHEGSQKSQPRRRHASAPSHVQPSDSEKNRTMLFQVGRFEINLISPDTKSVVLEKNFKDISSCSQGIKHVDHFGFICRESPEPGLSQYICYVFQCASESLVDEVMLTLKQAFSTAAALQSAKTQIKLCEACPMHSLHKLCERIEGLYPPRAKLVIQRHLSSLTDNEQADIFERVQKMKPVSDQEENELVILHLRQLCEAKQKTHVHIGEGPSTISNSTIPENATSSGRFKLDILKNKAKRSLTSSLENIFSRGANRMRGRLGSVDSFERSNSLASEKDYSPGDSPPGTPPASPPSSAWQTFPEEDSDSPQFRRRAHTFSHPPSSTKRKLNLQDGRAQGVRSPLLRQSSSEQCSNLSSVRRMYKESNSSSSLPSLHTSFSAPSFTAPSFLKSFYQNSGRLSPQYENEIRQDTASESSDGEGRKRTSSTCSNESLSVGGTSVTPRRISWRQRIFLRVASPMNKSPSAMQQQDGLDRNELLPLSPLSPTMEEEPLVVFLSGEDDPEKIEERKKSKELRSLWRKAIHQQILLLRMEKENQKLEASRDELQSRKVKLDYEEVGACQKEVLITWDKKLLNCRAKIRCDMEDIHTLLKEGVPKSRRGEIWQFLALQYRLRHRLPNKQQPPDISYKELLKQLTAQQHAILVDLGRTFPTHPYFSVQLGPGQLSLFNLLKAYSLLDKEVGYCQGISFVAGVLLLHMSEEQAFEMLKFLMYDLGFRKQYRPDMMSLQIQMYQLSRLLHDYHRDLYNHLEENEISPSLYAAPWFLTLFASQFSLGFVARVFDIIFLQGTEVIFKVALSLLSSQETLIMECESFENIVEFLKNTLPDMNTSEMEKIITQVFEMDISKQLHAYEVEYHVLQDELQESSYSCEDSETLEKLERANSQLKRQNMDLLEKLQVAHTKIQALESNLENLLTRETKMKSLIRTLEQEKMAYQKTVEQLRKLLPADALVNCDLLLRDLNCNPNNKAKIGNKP
UniProt Q9BZK7: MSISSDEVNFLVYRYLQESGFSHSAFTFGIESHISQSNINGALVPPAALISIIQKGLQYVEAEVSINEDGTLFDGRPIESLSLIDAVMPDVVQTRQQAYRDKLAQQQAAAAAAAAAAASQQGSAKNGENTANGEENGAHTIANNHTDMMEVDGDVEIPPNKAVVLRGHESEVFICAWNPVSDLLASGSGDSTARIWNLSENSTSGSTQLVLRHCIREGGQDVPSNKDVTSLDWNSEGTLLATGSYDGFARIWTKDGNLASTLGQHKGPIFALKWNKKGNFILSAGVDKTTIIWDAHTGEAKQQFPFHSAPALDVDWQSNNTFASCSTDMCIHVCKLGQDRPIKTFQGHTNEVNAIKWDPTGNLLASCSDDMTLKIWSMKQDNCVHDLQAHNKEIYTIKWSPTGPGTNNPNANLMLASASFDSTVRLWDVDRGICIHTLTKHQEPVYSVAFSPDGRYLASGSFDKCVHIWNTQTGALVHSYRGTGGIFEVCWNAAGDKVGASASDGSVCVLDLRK
UniProt Q96BS2: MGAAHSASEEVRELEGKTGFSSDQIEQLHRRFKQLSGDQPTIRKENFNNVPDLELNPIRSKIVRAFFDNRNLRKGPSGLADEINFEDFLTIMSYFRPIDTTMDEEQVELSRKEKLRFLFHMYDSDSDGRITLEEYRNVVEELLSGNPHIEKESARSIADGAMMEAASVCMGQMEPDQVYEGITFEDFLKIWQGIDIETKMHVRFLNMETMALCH
UniProt Q99081: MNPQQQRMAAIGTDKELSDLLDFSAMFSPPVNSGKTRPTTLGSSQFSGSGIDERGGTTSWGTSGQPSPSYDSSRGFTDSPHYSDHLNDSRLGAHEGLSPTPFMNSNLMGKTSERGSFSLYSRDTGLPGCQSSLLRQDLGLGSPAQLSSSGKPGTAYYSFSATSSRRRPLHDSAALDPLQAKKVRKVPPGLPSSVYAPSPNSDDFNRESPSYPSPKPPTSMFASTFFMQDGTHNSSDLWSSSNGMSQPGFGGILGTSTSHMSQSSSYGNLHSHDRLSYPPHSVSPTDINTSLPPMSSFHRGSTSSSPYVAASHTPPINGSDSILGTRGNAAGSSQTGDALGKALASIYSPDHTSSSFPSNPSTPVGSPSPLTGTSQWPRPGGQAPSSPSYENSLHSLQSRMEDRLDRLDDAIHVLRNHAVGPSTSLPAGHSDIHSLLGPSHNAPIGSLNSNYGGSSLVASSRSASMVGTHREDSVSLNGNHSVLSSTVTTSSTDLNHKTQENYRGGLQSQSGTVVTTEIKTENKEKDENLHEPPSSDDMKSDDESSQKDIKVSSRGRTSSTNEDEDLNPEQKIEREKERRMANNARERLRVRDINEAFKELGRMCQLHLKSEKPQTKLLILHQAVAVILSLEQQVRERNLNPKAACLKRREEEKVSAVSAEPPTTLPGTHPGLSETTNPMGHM

Some of the results follow.

Compound in the first assay: C=CC(=O)N1CCC[C@@H](n2nc(-c3ccc(Oc4ccccc4)cc3)c3c(N)ncnc32)C1 [ibrutinib]
Briefly: log2 fold change, soluble protein after heating vs DMSO (PISA); higher = thermal stabilisation; K562 cells, 10 uM, 30 min; active = over 0.2 and 3.5 SD of the protein, either way, in both replicates (recomputed). The method, boiled down:
(§1)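 Thermal stability values are relative to control samples and come from duplicates. They are expressed as log2 fold changes. For measurement, K562 cells (2×10^6 cells/mL) received 10 μM compound for 30 min, and aliquots were heated for 3 min over 48°C-58°C, pooled, and extracted at 4°C in PBS with 0.5% NP-40. Soluble protein, the supernatant after 21,000xg for 90 min, was quantified by TMTpro 16plex LC-MS/MS with equalised channel sums.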
Consider TBCB (UniProt Q99426), for which the log2 fold change is inactive: -0.022.

Consider TIMMDC1 (UniProt Q9NPL8), for which the log2 fold change is inactive: 0.032.

For TBCE (UniProt Q15813), the log2 fold change is inactive: -0.059.

On to TK2 isoform 6 (UniProt O00142), for which the log2 fold change was inactive: -0.116.

Consider TIMM23 (UniProt O14925), for which the log2 fold change is inactive: 0.015.

For the target TET1 (UniProt Q8NFU7), the log2 fold change is inactive: -0.011.

Turning to TCP1 (UniProt P17987), the log2 fold change is inactive: 0.009.

As for TBL1X (UniProt O60907), the log2 fold change is inactive: 0.011.

TFB1M (UniProt Q8WVM0): the log2 fold change was inactive: 0.108.

As for TBL3 (UniProt Q12788), the log2 fold change is inactive: 0.049.

With TIMM8B (UniProt Q9Y5J9), the log2 fold change is inactive: 0.032.

On to TBC1D4 (UniProt O60343), for which the log2 fold change is inactive: -0.079.

TGM2 (UniProt P21980): the log2 fold change is inactive: -0.001.

Turning to TBL1XR1 (UniProt Q9BZK7), the log2 fold change was inactive: -0.017.

TESC (UniProt Q96BS2): the log2 fold change is inactive: 0.017.

As to TCF12 isoform 3 (UniProt Q99081), the log2 fold change is inactive: -0.007.

Compound in another assay: CC(=O)c1cnc2ccc(-c3cc(Cl)c(O)c(Cl)c3)nc2c1N[C@H]1CC[C@H](CN(C)C)CC1
The description is as above. The essentials: as §1
On to TJAP1 (UniProt Q5JTD0), for which the log2 fold change was inactive: 0.176.

In the case of TCEA1 (UniProt P23193), the log2 fold change is inactive: 0.001.

Take TIMM50 isoform 2 (UniProt Q3ZCQ8): the log2 fold change was inactive: -0.058.

For the target THUMPD1 (UniProt Q9NXG2), the log2 fold change is inactive: -0.02.

Turning to THBS1 (UniProt P07996), the log2 fold change was inactive: 0.151.

Consider TCIRG1 (UniProt Q13488), for which the log2 fold change was inactive: -0.296.

On to TCF3 (UniProt P15923), for which the log2 fold change is inactive: -0.015.

For the target THOC1 (UniProt Q96FV9), the log2 fold change is inactive: 0.006.

On to THOC2 (UniProt Q8NI27), for which the log2 fold change was inactive: -0.012.

THNSL1 (UniProt Q8IYQ7): the log2 fold change is inactive: -0.032.

As to TBC1D22B (UniProt Q9NU19), the log2 fold change is inactive: -0.053.

As for TLCD4 (UniProt Q96MV1), the log2 fold change was inactive: -0.013.

In the case of THOC7 (UniProt Q6I9Y2), the log2 fold change is inactive: -0.068.

Regarding TKFC (UniProt Q3LXA3), the log2 fold change is inactive: -0.002.

In the case of TGFBR3 (UniProt Q03167), the log2 fold change is inactive: -0.059.

With TKT isoform 2 (UniProt P29401), the log2 fold change was inactive: 0.002.

TDRKH (UniProt Q9Y2W6): the log2 fold change was inactive: -0.054.

On to TGOLN2 isoform 7 (UniProt O43493), for which the log2 fold change is inactive: -0.008.

TBCC (UniProt Q15814): the log2 fold change is inactive: 0.013.

With TF (UniProt P02787), the log2 fold change was inactive: 0.103.

Regarding TDP2 isoform 2 (UniProt O95551), the log2 fold change was inactive: -0.013.

Take TERF2 (UniProt Q15554): the log2 fold change is inactive: -0.017.

In the case of THOC6 (UniProt Q86W42), the log2 fold change was inactive: -0.001.

Take TBCB (UniProt Q99426): the log2 fold change is inactive: -0.039.

Regarding TIMMDC1 (UniProt Q9NPL8), the log2 fold change was inactive: 0.048.

TBCE (UniProt Q15813): the log2 fold change was inactive: -0.038.

For TK2 isoform 6 (UniProt O00142), the log2 fold change is inactive: -0.107.

As to TIMM23 (UniProt O14925), the log2 fold change is inactive: 0.011.

Turning to TET1 (UniProt Q8NFU7), the log2 fold change is inactive: 0.008.

TCP1 (UniProt P17987): the log2 fold change was inactive: 0.014.

For the target TBL1X (UniProt O60907), the log2 fold change is inactive: -0.094.

Take TFB1M (UniProt Q8WVM0): the log2 fold change was inactive: 0.025.

Consider TBL3 (UniProt Q12788), for which the log2 fold change was inactive: 0.058.

On to TIMM8B (UniProt Q9Y5J9), for which the log2 fold change is inactive: -0.012.

As to TBC1D4 (UniProt O60343), the log2 fold change was inactive: -0.095.

For the target TGM2 (UniProt P21980), the log2 fold change is inactive: -0.002.

With TBL1XR1 (UniProt Q9BZK7), the log2 fold change is inactive: -0.043.

As to TESC (UniProt Q96BS2), the log2 fold change was inactive: -0.018.

In the case of TCF12 isoform 3 (UniProt Q99081), the log2 fold change was inactive: -0.123.

Compound in a further assay: CC(C)(C)Cn1c(N)nc2ccc(-c3[nH]c(C(C)(C)C)nc3-c3ccc(F)cc3)nc21 [ralimetinib]
The assay is described as above. The essentials: as §1
Regarding TJAP1 (UniProt Q5JTD0), the log2 fold change is inactive: -0.084.

As for TCEA1 (UniProt P23193), the log2 fold change was inactive: -0.038.

On to TIMM50 isoform 2 (UniProt Q3ZCQ8), for which the log2 fold change is inactive: -0.074.

As to THUMPD1 (UniProt Q9NXG2), the log2 fold change is inactive: -0.063.

Regarding THBS1 (UniProt P07996), the log2 fold change was inactive: -0.006.

As for TCIRG1 (UniProt Q13488), the log2 fold change is inactive: 0.156.

Regarding TCF3 (UniProt P15923), the log2 fold change was inactive: 0.069.

In the case of THOC1 (UniProt Q96FV9), the log2 fold change was inactive: 0.12.

On to THOC2 (UniProt Q8NI27), for which the log2 fold change is inactive: 0.078.

THNSL1 (UniProt Q8IYQ7): the log2 fold change is inactive: -0.038.

As to TBC1D22B (UniProt Q9NU19), the log2 fold change is inactive: -0.007.

In the case of TLCD4 (UniProt Q96MV1), the log2 fold change was inactive: 0.029.

Regarding THOC7 (UniProt Q6I9Y2), the log2 fold change is inactive: 0.057.

Turning to TKFC (UniProt Q3LXA3), the log2 fold change is inactive: -0.036.

As to TGFBR3 (UniProt Q03167), the log2 fold change was inactive: 0.02.

For the target TKT isoform 2 (UniProt P29401), the log2 fold change was inactive: -0.026.

As to TDRKH (UniProt Q9Y2W6), the log2 fold change is inactive: 0.074.

Regarding TGOLN2 isoform 7 (UniProt O43493), the log2 fold change is inactive: 0.068.

In the case of TBCC (UniProt Q15814), the log2 fold change was inactive: -0.022.

Regarding TF (UniProt P02787), the log2 fold change was inactive: -0.011.

Consider TDP2 isoform 2 (UniProt O95551), for which the log2 fold change is inactive: 0.029.

As for TERF2 (UniProt Q15554), the log2 fold change was inactive: 0.205.

Consider THOC6 (UniProt Q86W42), for which the log2 fold change is inactive: -0.02.

Consider TBCB (UniProt Q99426), for which the log2 fold change is inactive: -0.008.

With TIMMDC1 (UniProt Q9NPL8), the log2 fold change was inactive: 0.016.

In the case of TBCE (UniProt Q15813), the log2 fold change was inactive: 0.173.

As to TK2 isoform 6 (UniProt O00142), the log2 fold change is inactive: 0.

Take TIMM23 (UniProt O14925): the log2 fold change was inactive: 0.075.

As to TET1 (UniProt Q8NFU7), the log2 fold change was inactive: 0.069.

Turning to TCP1 (UniProt P17987), the log2 fold change is inactive: -0.004.

Take TBL1X (UniProt O60907): the log2 fold change is inactive: -0.085.

As for TFB1M (UniProt Q8WVM0), the log2 fold change is inactive: 0.128.

TBL3 (UniProt Q12788): the log2 fold change is inactive: 0.048.

As for TIMM8B (UniProt Q9Y5J9), the log2 fold change was inactive: -0.002.

As to TBC1D4 (UniProt O60343), the log2 fold change was inactive: 0.072.

With TGM2 (UniProt P21980), the log2 fold change was inactive: -0.048.

For TBL1XR1 (UniProt Q9BZK7), the log2 fold change was inactive: -0.051.

In the case of TESC (UniProt Q96BS2), the log2 fold change is inactive: 0.194.

With TCF12 isoform 3 (UniProt Q99081), the log2 fold change was inactive: -0.012.
